From PubChem BioAssay AID192 (DTP/NCI, 2004)
The list shows only some results of the screen, not a fair sample: it gathers tests that were run many times, whatever their T/C, doses with no T/C, and many T/C values between a quarter and a half above the control. Other doses and runs of a compound stand elsewhere. T/C is the treated group as % of the vehicle group. Some entries give survivors of the animals treated and no T/C: the source holds a T/C of zero for them, seemingly a mark for toxic or unscored doses. Some survivor counts are full or nearly so, which does not show that the dose was tolerated: the source hardly ever lists a survival T/C far under the control, and the zero likely stands for such cases as well. Counts of survivors are from the toxicity check (mostly the fifth day) where no day follows; animals may have died later. Schedule codes are those of the source, taken here to give the interval after Q, in days (D) or hours (H), and the number of doses after X. Signs of the kind (2×) give the number of equal values in this list. Some doses were run more than once; their values stand side by side, smallest first. For survival time, this PubChem deposit counts one and a half times the control or more as active, and values a quarter to a half above the control carry no call in these data; other NCI protocols may use other cut-offs. Some T/C values are followed by the survivors on the day toxicity was checked, most often the fifth; without a count, all were alive then.

Tested on: BDF1 mice, B16 melanoma ip, median survival T/C
Test: NCI In Vivo Anticancer Drug Screen. Data for tumor model B16 Melanoma (intraperitoneal) in B6D2F1 (BDF1) mice
Details: T/C endpoint: median survival time, schedule: Q01DX009 (ip), higher T/C = longer survival
Procedure, shortened: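 In this screen, activity was judged from survival or tumor size in treated versus vehicle-treated tumor-bearing mice, reported as T/C.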

[1] = dose: 25.0 mg/kg/injection, vehicle: saline
[2] = dose: 30.0 mg/kg/injection, vehicle: Klucel (hydroxypropylcellulose) (HPC)
[3] = dose: 50.0 mg/kg/injection, vehicle: Klucel (hydroxypropylcellulose) (HPC)
[4] = dose: 50.0 mg/kg/injection, vehicle: saline
[5] = dose: 60.0 mg/kg/injection, vehicle: Klucel (hydroxypropylcellulose) (HPC)
[6] = dose: 100.0 mg/kg/injection, vehicle: Klucel (hydroxypropylcellulose) (HPC)
[7] = dose: 100.0 mg/kg/injection, vehicle: saline
[8] = dose: 200.0 mg/kg/injection, vehicle: Klucel (hydroxypropylcellulose) (HPC)
[9] = dose: 200.0 mg/kg/injection, vehicle: saline

In the case of S=c1nc[nH]c2nc[nH]c12, the T/C (dose: 10.0 mg/kg/injection, vehicle: other, evaluated on day 45) was 107 and 115 % of control, the T/C (dose: 10.0 mg/kg/injection, vehicle: other, evaluated on day 60) was 97 and 98 % of control and the T/C (dose: 15.0 mg/kg/injection, vehicle: Klucel (hydroxypropylcellulose) (HPC)) was 90, 94, 97, 102, 105, 109, 115, 121 % of control. For the same compound, the T/C (dose: 20.0 mg/kg/injection, vehicle: other, evaluated on day 45) was 102 and 106 % of control, the T/C (dose: 20.0 mg/kg/injection, vehicle: other, evaluated on day 60) was 101 and 105 % of control and the T/C (dose: 25.0 mg/kg/injection, vehicle: Klucel (hydroxypropylcellulose) (HPC)) was 94, 95, 96, 97 (2×), 102 (2×), 102 [4 of 6 alive], 103, 105, 107, 111, 113, 114, 123 % of control. For the same compound, the T/C (dose: 25.0 mg/kg/injection, vehicle: saline with Tween-80, evaluated on day 45) was 100 % of control, the T/C (dose: 25.0 mg/kg/injection, vehicle: saline with Tween-80, evaluated on day 50) was 95 % of control and the T/C (dose: 25.0 mg/kg/injection, vehicle: saline with Tween-80, evaluated on day 60) was 90 [5 of 6 alive], 92, 97, 102 % of control. The survivor count (dose: 25.0 mg/kg/injection, vehicle: saline with Tween-80) was 6 of 6, the T/C [1] was 92 (2×), 105, 107, 113, 115 % of control and the survivor count [1] was 6 of 6. The T/C [2] was 96, 110, 112, 117 % of control, the survivor count [2] was 10 of 10 and the T/C (dose: 40.0 mg/kg/injection, vehicle: other, evaluated on day 45) was 86 and 106 % of control. The T/C (dose: 40.0 mg/kg/injection, vehicle: other, evaluated on day 60) was 97 and 102 % of control, the survivor count (dose: 45.0 mg/kg/injection, vehicle: other) was 9 of 10 and the T/C [3] was 86 (2×), 90 (2×), 92 [4 of 6 alive], 94, 100, 100 [5 of 6 alive], 102, 104, 126 % of control. The survivor count [3] was 6 of 6, the survivor count (dose: 50.0 mg/kg/injection, vehicle: acid diluted with saline) was 5 of 6 and the T/C (dose: 50.0 mg/kg/injection, vehicle: saline with Tween-80, evaluated on day 45) was 92 % of control. The T/C (dose: 50.0 mg/kg/injection, vehicle: saline with Tween-80, evaluated on day 50) was 87 % of control, the T/C (dose: 50.0 mg/kg/injection, vehicle: saline with Tween-80, evaluated on day 60) was 88, 92, 97 % of control and the survivor count (dose: 50.0 mg/kg/injection, vehicle: saline with Tween-80) was 6 of 6 (2×). For the same compound, the T/C [4] was 87, 94, 97 [4 of 6 alive], 113 % of control, the survivor count [4] was 6 of 7 and 6 of 6 and the T/C [5] was 90, 94, 102 % of control. The survivor count [5] was 10 of 10, the survivor count (dose: 60.0 mg/kg/injection, vehicle: saline) was 6 of 6 and the survivor count (dose: 80.0 mg/kg/injection, vehicle: other) was 9 of 10 and 10 of 10. The survivor count (dose: 90.0 mg/kg/injection, vehicle: other) was 2 of 10, the T/C [6] was 88, 89 [4 of 6 alive], 97, 105 % of control and the survivor count [6] was 4 of 6 and 6 of 6. The survivor count (dose: 100.0 mg/kg/injection, vehicle: acid diluted with saline) was 6 of 6, the T/C (dose: 100.0 mg/kg/injection, vehicle: saline with Tween-80, evaluated on day 50) was 92 % of control and the T/C (dose: 100.0 mg/kg/injection, vehicle: saline with Tween-80, evaluated on day 60) was 100 % of control. For the same compound, the survivor count (dose: 100.0 mg/kg/injection, vehicle: saline with Tween-80) was 6 of 6 (3×), the T/C [7] was 88, 92, 93, 100, 115 % of control and the survivor count [7] was 6 of 6 and 7 of 7. The survivor count (dose: 120.0 mg/kg/injection, vehicle: Klucel (hydroxypropylcellulose) (HPC)) was 9 of 10 and 10 of 10, the survivor count (dose: 120.0 mg/kg/injection, vehicle: saline) was 6 of 6 and the T/C [8] was 88, 92, 96, 114 % of control. For the same compound, the survivor count [8] was 5 of 6 and 6 of 6, the survivor count (dose: 200.0 mg/kg/injection, vehicle: acid diluted with saline) was 6 of 6 and the survivor count (dose: 200.0 mg/kg/injection, vehicle: saline with Tween-80) was 4 of 6, 5 of 6, 6 of 6 (2×). The T/C [9] was 87 and 97 % of control, the survivor count [9] was 5 of 6, 6 of 6, 7 of 7 and the survivor count (dose: 240.0 mg/kg/injection, vehicle: Klucel (hydroxypropylcellulose) (HPC)) was 9 of 10 and 10 of 10.
